In PMC12474859:
Results are given in words; binding and its absence hold for the method and conditions named. In cells and extracts the contact can be indirect. Some results given as binding are weak or reduced against the parent protein; the word gives no strength. Where a sequence is shown, tags or fusion partners need not be part of it.

Amino acid sequences for entries named in this document (tags omitted). A change or cut given only in a name is not applied to a line headed by its entry.
UniProt P43246: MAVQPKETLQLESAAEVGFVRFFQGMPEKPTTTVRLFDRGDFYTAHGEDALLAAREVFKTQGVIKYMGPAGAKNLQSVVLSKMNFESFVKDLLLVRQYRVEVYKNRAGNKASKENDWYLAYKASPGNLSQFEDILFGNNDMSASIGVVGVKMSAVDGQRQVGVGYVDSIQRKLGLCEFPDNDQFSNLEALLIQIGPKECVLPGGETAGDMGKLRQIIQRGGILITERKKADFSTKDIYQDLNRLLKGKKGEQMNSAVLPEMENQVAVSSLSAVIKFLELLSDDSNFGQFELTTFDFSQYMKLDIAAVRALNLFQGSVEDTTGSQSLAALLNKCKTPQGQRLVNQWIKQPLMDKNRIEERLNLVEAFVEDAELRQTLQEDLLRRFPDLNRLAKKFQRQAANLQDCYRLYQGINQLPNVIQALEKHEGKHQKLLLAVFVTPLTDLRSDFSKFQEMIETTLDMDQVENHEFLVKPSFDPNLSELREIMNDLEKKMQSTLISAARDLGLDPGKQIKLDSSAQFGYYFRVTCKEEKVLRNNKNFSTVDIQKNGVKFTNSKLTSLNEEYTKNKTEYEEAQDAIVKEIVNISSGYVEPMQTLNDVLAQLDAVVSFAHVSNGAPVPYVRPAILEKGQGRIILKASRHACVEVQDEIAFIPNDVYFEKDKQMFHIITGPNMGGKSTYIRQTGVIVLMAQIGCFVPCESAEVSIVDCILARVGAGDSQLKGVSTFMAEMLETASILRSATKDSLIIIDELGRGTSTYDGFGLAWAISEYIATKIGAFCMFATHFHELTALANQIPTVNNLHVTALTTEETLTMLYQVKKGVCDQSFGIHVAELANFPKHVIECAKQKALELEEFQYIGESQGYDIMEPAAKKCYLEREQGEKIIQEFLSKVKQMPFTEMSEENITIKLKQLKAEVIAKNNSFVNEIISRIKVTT
UniProt P20585: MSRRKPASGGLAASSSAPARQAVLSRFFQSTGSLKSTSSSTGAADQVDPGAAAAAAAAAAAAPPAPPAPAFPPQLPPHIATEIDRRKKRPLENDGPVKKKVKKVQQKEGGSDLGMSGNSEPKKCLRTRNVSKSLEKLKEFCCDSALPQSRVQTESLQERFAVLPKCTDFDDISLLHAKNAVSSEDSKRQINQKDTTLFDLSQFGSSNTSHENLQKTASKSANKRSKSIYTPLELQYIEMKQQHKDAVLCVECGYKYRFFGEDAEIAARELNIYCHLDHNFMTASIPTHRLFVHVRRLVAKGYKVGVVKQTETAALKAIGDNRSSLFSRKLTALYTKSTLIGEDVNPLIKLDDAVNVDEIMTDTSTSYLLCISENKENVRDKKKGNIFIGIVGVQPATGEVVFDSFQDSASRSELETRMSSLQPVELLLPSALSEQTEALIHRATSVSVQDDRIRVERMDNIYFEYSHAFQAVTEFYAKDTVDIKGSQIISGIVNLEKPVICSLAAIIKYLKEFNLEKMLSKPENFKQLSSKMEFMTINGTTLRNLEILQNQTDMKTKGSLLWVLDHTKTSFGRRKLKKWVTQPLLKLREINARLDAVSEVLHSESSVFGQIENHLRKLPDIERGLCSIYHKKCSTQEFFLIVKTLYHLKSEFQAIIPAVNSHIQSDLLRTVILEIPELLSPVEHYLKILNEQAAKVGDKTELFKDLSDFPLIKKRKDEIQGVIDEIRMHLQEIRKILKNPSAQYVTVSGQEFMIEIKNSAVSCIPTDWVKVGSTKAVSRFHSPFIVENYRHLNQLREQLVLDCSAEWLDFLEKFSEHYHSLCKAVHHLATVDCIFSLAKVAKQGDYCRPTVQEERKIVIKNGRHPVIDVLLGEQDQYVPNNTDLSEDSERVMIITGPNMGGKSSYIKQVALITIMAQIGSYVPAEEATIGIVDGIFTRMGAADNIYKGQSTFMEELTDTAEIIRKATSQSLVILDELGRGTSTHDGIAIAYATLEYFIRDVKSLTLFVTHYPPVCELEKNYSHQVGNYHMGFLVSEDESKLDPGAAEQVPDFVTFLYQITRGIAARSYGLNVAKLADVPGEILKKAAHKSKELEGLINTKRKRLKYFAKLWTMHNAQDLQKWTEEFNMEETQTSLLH

Biological target: 3x-Flag-tagged DNA2 (human) (UniProt P51530)
Assay: co-IP; whole-cell lysates (0.5% Nonidet P-40, 50 mM Tris-HCl, 0.1 mM EDTA, 150 mM NaCl) with an antibody against a specific protein and Protein A/G magnetic beads; wash with 500 mM NaCl; western blot; IP of DNA2 (Fig. 2c) and IP of MSH2 (Fig. 2d)

Substance	binding
MutSα (MSH2-MSH6) (from UniProt P43246 1-934; P52701 1-1360) (complex)	binds
MSH3 (from UniProt P20585 1-1137)	no binding
